Results published in the supplement of paper PMC3334620.
Over roughly 33,000 sequences, “E-score (-0.5 to 0.5)” has its median near -0.0014; the highest 2% begin near 0.25. The list shows a part of the results.

The sequences below were run against T1, Cad1 (UniProt P24813) (assay: PBM E-score (8-mer binding enrichment) (E-score (-0.5 to 0.5)); higher = stronger / more preferred TF binding). Conditions: protein concentration: 100 nM; construct: GST-full length.
T1 sequence: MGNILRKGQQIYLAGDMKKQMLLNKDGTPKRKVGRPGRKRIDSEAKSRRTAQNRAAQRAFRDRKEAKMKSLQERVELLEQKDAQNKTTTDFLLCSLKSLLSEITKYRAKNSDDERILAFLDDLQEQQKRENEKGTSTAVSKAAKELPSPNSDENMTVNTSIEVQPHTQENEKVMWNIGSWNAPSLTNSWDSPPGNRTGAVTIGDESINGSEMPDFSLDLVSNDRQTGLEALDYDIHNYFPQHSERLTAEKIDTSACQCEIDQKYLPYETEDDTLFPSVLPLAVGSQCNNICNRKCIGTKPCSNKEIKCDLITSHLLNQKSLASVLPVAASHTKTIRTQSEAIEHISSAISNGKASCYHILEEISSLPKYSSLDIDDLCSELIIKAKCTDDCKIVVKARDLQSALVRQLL
How it was run: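 Bound GST-tagged yeast transcription factors, applied at about 100-200 nM to double-stranded universal all-10-mer Agilent arrays, were detected with fluorescent anti-GST. Scans were normalised with masliner. A modified Wilcoxon-Mann-Whitney statistic, the E-score, was assigned to each ungapped eight-base word pooled with its reverse complement by the Universal PBM Analysis Suite.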

Sequence | PBM E-score
ATGTGACG | -0.185
ACCGTTCA | -0.0296
ACGCAGAC | 0.0915
ATGGGTGG | -0.148
ACTCACAT | 0.00257
ATTATTCC | 0.131
GTGCAAGA | -0.0224
GTTAACCA | 0.179
CACAGTAA | 0.291
GCCCGCCC | -0.0832
CTTTAAGA | 0.191
GAGCGACA | 0.0316
GCTGAGCA | 0.149
GAAAGTGC | -0.245
CTGGTTGA | -0.197
GGAAGCTA | 0.174
AGTCCGGA | 0.226
AGTAGCGA | 0.0562
CCAATAAA | 0.169
GACCTGTA | -0.148
AAAATAAT | 0.314
CGGTATGC | -0.0872
CACCACGA | 0.0868
AGACACAG | 0.0295
ACGGCATG | 0.0114

Sequence | PBM E-score
CAGTATGA | 0.0583
CCCCGTCG | -0.23
AGACACAT | -0.154
AAAAGAAC | 0.118
CTCGATAA | 0.0969
ATAAAGGA | -0.21
GTAGCTGA | 0.0883
CGAAGGTA | 0.00494
GCACAGAC | 0.096
ACATTTGG | -0.0952
AAGTGAAT | 0.173
CAGTCTTC | -0.194
TAGTTACA | -0.0231
CAGAGGCG | -0.0709
ACTCGCTG | 0.0475
GTTCCAAC | 0.0238
ACCTCAGG | -0.126
ACCAATCG | 0.0493
AGAATGAC | 0.0369
CACCCGGC | -0.252
GTCCGGAC | 0.319
CTCGCCAG | -0.218
CTCTACCA | -0.1
AGAGGGAT | -0.282
AGTAGTGA | 0.0185

An excerpt of these results, with tabs:
Sequence	PBM E-score
ACTCACAT	0.00257
ATTATTCC	0.131
GTGCAAGA	-0.0224
GTTAACCA	0.179
CACAGTAA	0.291
GCCCGCCC	-0.0832
CTTTAAGA	0.191
GAGCGACA	0.0316
GCTGAGCA	0.149
GAAAGTGC	-0.245
CTGGTTGA	-0.197
GGAAGCTA	0.174
AGTCCGGA	0.226
AGTAGCGA	0.0562
CCAATAAA	0.169
GACCTGTA	-0.148
AAAATAAT	0.314
CGGTATGC	-0.0872
CACCACGA	0.0868
AGACACAG	0.0295
ACGGCATG	0.0114
CAGTATGA	0.0583
CCCCGTCG	-0.23
AGACACAT	-0.154
AAAAGAAC	0.118
CTCGATAA	0.0969
ATAAAGGA	-0.21
GTAGCTGA	0.0883
CGAAGGTA	0.00494
GCACAGAC	0.096
ACATTTGG	-0.0952
AAGTGAAT	0.173
CAGTCTTC	-0.194
TAGTTACA	-0.0231
CAGAGGCG	-0.0709
ACTCGCTG	0.0475
GTTCCAAC	0.0238
ACCTCAGG	-0.126
ACCAATCG	0.0493
AGAATGAC	0.0369
CACCCGGC	-0.252
GTCCGGAC	0.319
CTCGCCAG	-0.218
CTCTACCA	-0.1
AGAGGGAT	-0.282
AGTAGTGA	0.0185

The results go on:

Sequence | PBM E-score
AGGGAGGG | -0.147
GGCTATCA | -0.0751
CACTCGAA | -0.0275
AAGAGTTG | 0.069
AGTATGCA | 0.0157
GCGGACAA | 0.206
AAAAATAC | 0.211
ACAAACTC | 0.052
ACCTACGG | -0.361
CGGAAGAG | -0.154
GGATATGA | -0.0132
GTGAACTA | -0.0351
CTCTCGAA | 0.0102
AAGTCGGA | 0.0401
AATCAGAT | 0.134
TGCCGCCA | 0.0461
GAAGGAAC | -0.117
GAATTTCC | 0.164
ATCAGGCC | 0.0828
GAGCGCAC | -0.00739
GTCATATA | 0.0271
CGTATACG | 0.17
AACTAGAC | 0.0391
AGCTCGAG | 0.0033
CGAGCAGA | -0.0763

Rewritten in markdown: part of the list above.

| Sequence | PBM E-score |
| --- | --- |
| GAAGGAAC | -0.117 |
| GAATTTCC | 0.164 |
| ATCAGGCC | 0.0828 |
| GAGCGCAC | -0.00739 |

The list continues:

Sequence | PBM E-score
CGAGAAAG | 0.0518
AAGTTTGC | 0.0667
ATCATGGA | -0.176
GCCGCGGC | 0.347
AACGCACA | 0.15
CATAGCGG | -0.142
ATTTCCTC | 0.173
AACTCGTA | 0.178
CGCTCTGC | -0.102
AAGAAGTC | -0.0508
ATTTTTCA | 0.204
AGAAGAGA | -0.0757
CTACGAGA | -0.114
ATGCTTGG | -0.0606
CATGCGCG | 0.202
ATCGATCC | 0.0374
TAACCGCA | 0.0919
CGATCAAA | 0.0133
AGGAATTA | 0.15
CCTCCCCG | -0.0239
CAGTTTCG | -0.0539
CTTCTGTA | -0.00063
GGGTTAAA | -0.218
GGTCCGAC | -0.0932
AATGGAGC | 0.084

Sequence | PBM E-score
AACTTCCC | -0.0274
GCGACCGA | 0.0587
CAAACAGG | -0.17
CAGCGGGC | 0.00044
CTCGAAAC | 0.16
AATACAAG | 0.0824
CAGCTCCA | -0.0649
CCGCCCCC | -0.373
GCTTCATA | 0.0649
AAGCAAAA | 0.118
CACACGGG | -0.052
TAGAGAAA | -0.0236
GCGATAGC | -0.0468
CTAATTTC | 0.124
CAAATACA | 0.106
CTGTGGGA | -0.143
CCGAGGGA | -0.174
CGGGCCCC | -0.136
GGTGACAC | -0.126
AGGCGCCA | 0.142
CAGATTCG | -0.00892
CCAGACCC | -0.191
ACCAGATG | -0.0464
TCGCACGA | -0.0443
GGGACTCA | -0.139

Sequence | PBM E-score
TCAAGACA | 0.0237
AGTTTGGC | 0.109
AATAAAAG | 0.0174
CCAAGTCA | -0.132
CCTGCTCC | -0.036
AATCATGA | 0.317
AAAAACTT | -0.0813
AGTGTGTA | 0.0886
GAGTTATC | 0.219
CACCTTTA | -0.051
ATACCTAG | -0.0127
AAGAGGAG | -0.158
GATAGTGC | -0.0578
ACTAATGG | 0.209
CGGCGCCA | 0.0675
CCTGACAC | 0.0201
ACGCCCCG | -0.0769
CAGAGCCG | -0.0105
GATTCAAA | -0.0456
CATCCCAC | -0.368
GTTTGGGA | 0.0291
AACAAGCT | -0.0349
ACACCACT | 0.187
CCACCCGC | -0.196
CAAATTCA | -0.108

Sequence | PBM E-score
AATGTCCA | 0.0701
GATTTACC | 0.0452
ATGGCAAT | 0.0002
CTAGCTAC | -0.0695
GACCGGGA | -0.151
GTAATTGA | 0.11
AGTCCGAG | 0.0467
ACAACCAT | 0.281
AGCTCACC | -0.14
CCACTGAG | -0.337
GATCCAAA | 0.061
TACTACTA | 0.157
AGCACTGG | -0.0911
CGCGATTC | 0.268
AGATCACC | 0.0249
ACCGCATC | -0.116
CGAATCAG | 0.0798
ACACTCGT | -0.0805
CTCATCTA | -0.0841
TACCGGGA | -0.00202
AGTACAGA | 0.0616
AACATTAA | 0.127
